Percent effect of library compounds

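Assay of Toxoplasma gondii numbers, read through their beta-galactosidase reporter with a colour substrate. Compounds at 50 µM. The record gives no direction; the compounds picked for IC50 retests had high values, so higher reads as fewer parasites. Size under these conditions: about 18,000 compounds, about 170 of them at 50% or above in at least one test.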

Values are the deposited “Percent Effect”, in %.
The controls that fix the scale are not given in the record; negative values are as filed.
Compounds were drawn at random from those tested, without regard to their results.

structure,percent effect
Cc1nccc(NCC(=O)NCc2ccco2)c1Cl,38.76
CCOCC(C)OC(=O)c1ccnn1C (stereo not given),57.1
NCC(CO)c1cccc(Cl)c1 (stereo not given),23.61
CN1CCCC(CCO)C1 (stereo not given),-6.495
NCCCC(=O)N(Cc1cccc(F)c1)C1CC1,-5.419
CN(C)S(=O)(=O)c1cccc(CN2CCCC2)c1,-0.9202
Cc1noc(C)c1CN(CCO)C1CC1,12.71
CNC(=O)c1ccc(OCc2nc(C)no2)cc1,-12.65
CC(CN)N(C)C(=O)CCc1ccsc1 (stereo not given),-1.547
O=C1CNCC(=O)N1,-16.47
CC(C)CN1CCN(C(=O)N(C)C)CC1,7.29
COC(=O)CC1NCCNC1=O (stereo not given),-0.3842
CC1Cc2ccccc2N1C(=O)c1ccccn1 (stereo not given),2.942
CC(N)C(=O)Nc1cccc(N2CCCC2)c1 (stereo not given),1.262
CN(CC(F)(F)F)C(=O)CN1CCCC(CCO)C1 (stereo not given),-8.931
O=C(CNC(=O)N1CCC=C(Br)C1)N1CCCCC1,-0.8144
COc1cccc(CN2CCNCC2)c1OC,0.8506
N#Cc1cccc(C(=O)OCCCn2cccn2)c1,20.42
COc1cc(Cl)c(CN)cc1OC,-1.738
Cn1ccnc1CN1CCCCC1CN1CCOCC1 (stereo not given),14.16
N#Cc1cccnc1OC1CCC(N)CC1 (stereo not given),-2.164
Cc1nc(C(=O)NCCN2CCCCC2C)n(C)n1 (stereo not given),-15.19
NCc1csc2nccn12,-23.34
CC(O)CNCCNCc1ccc(-c2ccccc2)o1 (stereo not given),-29.44
NCC(c1ccco1)N1CCCCC1 (stereo not given),3.271
Cn1c(CN)nc2ccc(F)cc21,14.77
Cc1c(Cl)cnn1C(C)C(N)=O (stereo not given),-4.804
CN(C)c1ncc(CN2CCC3(CCNCC3)C2)cn1,-0.5581
CCN(CC)S(=O)(=O)NCCCN1CCCCCC1=O,0.2837
Cc1cc(NC(=O)NC(C)Cn2ccnc2)no1 (stereo not given),-3.644
Cc1ccnc(NC(=O)NC2(C)CCC2)c1,42
COc1ccc(C(C)NC(CO)CO)c(Br)c1 (stereo not given),-0.2842
Cc1cc(S(=O)(=O)N[C@@H]2COCC[C@H]2O)c(Cl)cc1F,1.797
Cc1ccc(CNCCS(=O)(=O)N2CCOCC2)cc1,6.672
CC(O)CNc1c[nH]c(=O)[nH]c1=O (stereo not given),-3.954
OCCNCc1nccs1,-5.988
CN(CC(=O)Nc1cnc2ccccc2c1)S(C)(=O)=O,-10.44
CC(O)Cn1cccn1 (stereo not given),5.557
COc1cc(OC)cc(C(=O)NCc2ccnn2C)c1,-30.85
O=C1CCCCC1c1ccoc1 (stereo not given),-13.63
CN(C)CCO[C@@H]1COCC[C@H]1NS(C)(=O)=O,3.993
Cc1ccc(C(O)c2cccnc2)cc1 (stereo not given),-24.7
NCC1CCCCN1C(=O)CN1CCc2sccc2C1 (stereo not given),21.58
Nc1nnc(SCC(=O)OCc2ccc(F)cc2)s1,-9.939
CCN1CCC(C(=O)NCc2cc(C)nn2C)CC1,-10.53
Cc1ccc(F)cc1C(=O)NCC1(O)CCNC1 (stereo not given),-6.582
Cc1cccc(C)c1CS(N)(=O)=O,6.35
CC1CN(C(=O)NCc2ccc(Cl)s2)CCS(=O)(=O)C1 (stereo not given),6.647

For reference, 6 entries once more:

| structure | percent effect |
|---|---|
| `O=C1CNCC(=O)N1` | -16.47 |
| `CC(O)CNCCNCc1ccc(-c2ccccc2)o1` (stereo not given) | -29.44 |
| `CCN(CC)S(=O)(=O)NCCCN1CCCCCC1=O` | 0.2837 |
| `CC(O)Cn1cccn1` (stereo not given) | 5.557 |
| `CC(N)C(=O)Nc1cccc(N2CCCC2)c1` (stereo not given) | 1.262 |
| `CN(CC(F)(F)F)C(=O)CN1CCCC(CCO)C1` (stereo not given) | -8.931 |

From ChEMBL document CHEMBL3988442, “University of Dundee, Small-Polar-MMV Screening Library” (2021).